This is an account of results in patent US20060058231A1.

Amino acid sequences for entries named in this document (tags omitted). Residues count along the entry.
UniProt P27037, residues 20-134: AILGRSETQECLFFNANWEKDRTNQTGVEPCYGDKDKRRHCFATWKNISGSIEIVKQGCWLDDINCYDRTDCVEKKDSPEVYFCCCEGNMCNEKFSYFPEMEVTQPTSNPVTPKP
UniProt P36894, residues 24-152: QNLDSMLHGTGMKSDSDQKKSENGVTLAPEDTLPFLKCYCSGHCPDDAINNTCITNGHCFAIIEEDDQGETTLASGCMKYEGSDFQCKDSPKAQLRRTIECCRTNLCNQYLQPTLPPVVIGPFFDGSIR

T1: ActRIIb receptor/Fc fusion (R&D Systems) (UniProt Q13705)
T1 sequence (looked up): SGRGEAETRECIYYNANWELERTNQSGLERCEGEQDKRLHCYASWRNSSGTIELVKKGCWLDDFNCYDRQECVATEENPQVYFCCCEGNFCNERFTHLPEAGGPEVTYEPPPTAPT

T2: BMPRII receptor/Fc fusion (R&D Systems) (UniProt Q13873)
T2 sequence (looked up): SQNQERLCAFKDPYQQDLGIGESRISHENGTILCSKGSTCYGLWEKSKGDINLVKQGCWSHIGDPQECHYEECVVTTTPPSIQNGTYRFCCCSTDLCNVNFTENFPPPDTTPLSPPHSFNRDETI

T3: BMPRIb receptor/Fc fusion (R&D Systems) (UniProt O00238)
T3 sequence (looked up): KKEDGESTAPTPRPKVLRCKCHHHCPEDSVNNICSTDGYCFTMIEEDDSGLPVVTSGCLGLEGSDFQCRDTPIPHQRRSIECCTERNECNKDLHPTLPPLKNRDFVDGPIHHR

B1: FXS labeled BMP7 (ligand)
BMP-7 mature domain: STGGKQRSQNRSKTPKNQEALRMASVAENSSSDQRQACKKHELYVSFRDLGWQDWIIAPEGYAANYCEGECAFPLNSYMNATNHAIVQTLVHFINPETVPKPCCAPTQLNAISVLYFDDDSNVILKKYRNMVVRACGCH
modifications: labeled with C6-FXS (FITC-derived NHS fluorophore); labeled sites not given
B2: Y78H/R134S (ligand)
BMP-7 mature domain: B1 BMP-7 mature domain with N65Y, Y78H, D120S, R134S
B3: F93H/S120D (ligand)
BMP-7 mature domain: B1 BMP-7 mature domain with N65Y, F93H
B4: Y78H/A135E (ligand)
BMP-7 mature domain: B1 BMP-7 mature domain with N65Y, Y78H, D120S, A135E
B5: Y78H/R134E (ligand)
BMP-7 mature domain: B1 BMP-7 mature domain with N65Y, Y78H, D120S, R134E
B6: Y78H/A135S (ligand)
BMP-7 mature domain: B1 BMP-7 mature domain with N65Y, Y78H, D120S, A135S
B7: Y78H/Q108D (ligand)
BMP-7 mature domain: B1 BMP-7 mature domain with N65Y, Y78H, Q108D, D120S
B8: F93H/R134S (ligand)
BMP-7 mature domain: B1 BMP-7 mature domain with N65Y, F93H, D120S, R134S
B9: K39S/N110D (ligand)
BMP-7 mature domain: B1 BMP-7 mature domain with K39S, N65Y, N110D, D120S
B10: Y78H/H139R (ligand)
BMP-7 mature domain: B1 BMP-7 mature domain with N65Y, Y78H, D120S, H139R
B11: Y78H/S120D (ligand)
BMP-7 mature domain: B1 BMP-7 mature domain with N65Y, Y78H
B12: K39S/S120D (ligand)
BMP-7 mature domain: B1 BMP-7 mature domain with K39S, N65Y
B13: F93H/K39A (ligand)
BMP-7 mature domain: B1 BMP-7 mature domain with K39A, N65Y, F93H, D120S
B14: F93H/H139R (ligand)
BMP-7 mature domain: B1 BMP-7 mature domain with N65Y, F93H, D120S, H139R

Substitutions are numbered along the chain they refer to. Names and notes keep the numbering of the source. These are yes or no findings as the source states them, for the method shown. Some results given as binding are weak or reduced against the parent protein; the word gives no strength. For some of these results: Where a sequence is shown, tags or fusion partners need not be part of it.

The target in the first experiment is ActRIIa receptor/Fc fusion (R&D Systems) (UniProt P27037). Description: fluorescence anisotropy, labeled BMP-7 added to serial dilutions of receptor/Fc fusion (x axis [receptor] uM).
For the molecule B1, the binding result was “binds”.

For a further experiment, the target named is T1, ActRIIb receptor/Fc fusion (R&D Systems). The experiment is described as above.
For B1, the binding entry is given as “binds”.

The target in a further experiment is BMPRIa receptor/Fc fusion (R&D Systems) (UniProt P36894). The experiment is described as above.
As for B1, the binding result is on record as “binds”.

The next experiment has as its target T2, BMPRII receptor/Fc fusion (R&D Systems). Description: plate direct binding assay, BMP-7 from conditioned medium captured by anti-BMP-7 antibody, receptor-Fc titrated in 12 points; EC50 drawn as a bar, no number given.
Take B2: the binding entry is “binds”.
As for B3, the binding entry is “binds”.
On to B4, for which the binding result was “binds”.
Take B5: the binding result is “binds”.
Turning to B6, the binding entry is on record as “binds”.
Turning to B7, the binding result is on record as “binds”.
On to B8, for which the binding result is reported as “binds”.
Consider B9, for which the binding result is on record as “binds”.
B10: the binding entry is recorded as “binds”.
Consider B11, for which the binding entry is on record as “binds”.
On to B12, for which the binding result was “binds”.
With B13, the binding result was “binds”.
As for B14, the binding result is reported as “binds”.

Another experiment deals with ActRIIa receptor/Fc fusion (R&D Systems) (UniProt P27037). The experiment is described as above.
Consider B2, for which the binding result was “binds”.
Same read-out and setting: the value for B3 was “binds”; that for B4 was “binds”; that for B5 was “binds”.
As for B6, the binding entry was “binds”.
Consider B7, for which the binding entry was “binds”.
As for B8, the binding result is on record as “binds”.
Consider B9, for which the binding entry is “binds”.
For the molecule B10, the binding result is on record as “binds”.
In the case of B11, the binding result is recorded as “binds”.
As for B12, the binding entry is reported as “binds”.
B13: the binding entry is on record as “binds”.
Still for that read-out and setting: the value for B14 was “binds”.

In another experiment the target is T3, BMPRIb receptor/Fc fusion (R&D Systems). The experiment is described as above.
In the case of B2, the binding result is reported as “binds”.
On to B3, for which the binding result is on record as “binds”.
For the molecule B4, the binding entry is recorded as “binds”.
As for B5, the binding result is given as “binds”.
On the same count and under the same terms, the value for B6 was “binds”; that for B7 was “binds”; that for B8 was “binds”.
The same measure, in the same setting: then B9, with “binds”.
With B10, the binding result is “binds”.
Take B11: the binding entry was “binds”.
B12: the binding entry is given as “binds”.
In the case of B13, the binding entry is reported as “binds”.
As to B14, the binding entry is on record as “binds”.

The next experiment deals with BMPRIa receptor/Fc fusion (R&D Systems) (UniProt P36894). Described as above.
Turning to B2, the binding entry is reported as “binds”.
With B3, the binding entry is “binds”.
Still for that read-out and setting: then B4, with “binds”.
On to B5, for which the binding result is given as “binds”.
Same read-out and setting: the value for B6 was “binds”; that for B7 was “binds”; that for B8 was “binds”.
Consider B9, for which the binding entry is recorded as “binds”.
As for B10, the binding result was “binds”.
The same measure, in the same setting: then B11, with “binds”; and B12, with “binds”; and B13, with “binds”.
On to B14, for which the binding result was “binds”.
